System: Marrow Stromal Cells (MSCs)
Assay: Intracellular calcium response of MSCs to oscillatory fluid flow in the presence of calcium channel blockers
Settings: 20 μM; L-type voltage-operated calcium channel blocker; control 67.1±11.2; not different from control

SMILES: COC(=O)C1=C(C)NC(C)=C(C(=O)OC)C1c1ccccc1[N+](=O)[O-] [nifidipine]
- percentage of cells that responded to OFF with a change in intracellular calcium: 77.7±8.3%

— patent publication US20070117203A1, “Modulation of stem and progenitor cell growth by oscillatory fluid flow” (priority 2005, published 2007)
